This is an account of results in paper PMC7493981.

By UniProt entry, the sequences of proteins in these tests, tags left out.
UniProt Q4JK59: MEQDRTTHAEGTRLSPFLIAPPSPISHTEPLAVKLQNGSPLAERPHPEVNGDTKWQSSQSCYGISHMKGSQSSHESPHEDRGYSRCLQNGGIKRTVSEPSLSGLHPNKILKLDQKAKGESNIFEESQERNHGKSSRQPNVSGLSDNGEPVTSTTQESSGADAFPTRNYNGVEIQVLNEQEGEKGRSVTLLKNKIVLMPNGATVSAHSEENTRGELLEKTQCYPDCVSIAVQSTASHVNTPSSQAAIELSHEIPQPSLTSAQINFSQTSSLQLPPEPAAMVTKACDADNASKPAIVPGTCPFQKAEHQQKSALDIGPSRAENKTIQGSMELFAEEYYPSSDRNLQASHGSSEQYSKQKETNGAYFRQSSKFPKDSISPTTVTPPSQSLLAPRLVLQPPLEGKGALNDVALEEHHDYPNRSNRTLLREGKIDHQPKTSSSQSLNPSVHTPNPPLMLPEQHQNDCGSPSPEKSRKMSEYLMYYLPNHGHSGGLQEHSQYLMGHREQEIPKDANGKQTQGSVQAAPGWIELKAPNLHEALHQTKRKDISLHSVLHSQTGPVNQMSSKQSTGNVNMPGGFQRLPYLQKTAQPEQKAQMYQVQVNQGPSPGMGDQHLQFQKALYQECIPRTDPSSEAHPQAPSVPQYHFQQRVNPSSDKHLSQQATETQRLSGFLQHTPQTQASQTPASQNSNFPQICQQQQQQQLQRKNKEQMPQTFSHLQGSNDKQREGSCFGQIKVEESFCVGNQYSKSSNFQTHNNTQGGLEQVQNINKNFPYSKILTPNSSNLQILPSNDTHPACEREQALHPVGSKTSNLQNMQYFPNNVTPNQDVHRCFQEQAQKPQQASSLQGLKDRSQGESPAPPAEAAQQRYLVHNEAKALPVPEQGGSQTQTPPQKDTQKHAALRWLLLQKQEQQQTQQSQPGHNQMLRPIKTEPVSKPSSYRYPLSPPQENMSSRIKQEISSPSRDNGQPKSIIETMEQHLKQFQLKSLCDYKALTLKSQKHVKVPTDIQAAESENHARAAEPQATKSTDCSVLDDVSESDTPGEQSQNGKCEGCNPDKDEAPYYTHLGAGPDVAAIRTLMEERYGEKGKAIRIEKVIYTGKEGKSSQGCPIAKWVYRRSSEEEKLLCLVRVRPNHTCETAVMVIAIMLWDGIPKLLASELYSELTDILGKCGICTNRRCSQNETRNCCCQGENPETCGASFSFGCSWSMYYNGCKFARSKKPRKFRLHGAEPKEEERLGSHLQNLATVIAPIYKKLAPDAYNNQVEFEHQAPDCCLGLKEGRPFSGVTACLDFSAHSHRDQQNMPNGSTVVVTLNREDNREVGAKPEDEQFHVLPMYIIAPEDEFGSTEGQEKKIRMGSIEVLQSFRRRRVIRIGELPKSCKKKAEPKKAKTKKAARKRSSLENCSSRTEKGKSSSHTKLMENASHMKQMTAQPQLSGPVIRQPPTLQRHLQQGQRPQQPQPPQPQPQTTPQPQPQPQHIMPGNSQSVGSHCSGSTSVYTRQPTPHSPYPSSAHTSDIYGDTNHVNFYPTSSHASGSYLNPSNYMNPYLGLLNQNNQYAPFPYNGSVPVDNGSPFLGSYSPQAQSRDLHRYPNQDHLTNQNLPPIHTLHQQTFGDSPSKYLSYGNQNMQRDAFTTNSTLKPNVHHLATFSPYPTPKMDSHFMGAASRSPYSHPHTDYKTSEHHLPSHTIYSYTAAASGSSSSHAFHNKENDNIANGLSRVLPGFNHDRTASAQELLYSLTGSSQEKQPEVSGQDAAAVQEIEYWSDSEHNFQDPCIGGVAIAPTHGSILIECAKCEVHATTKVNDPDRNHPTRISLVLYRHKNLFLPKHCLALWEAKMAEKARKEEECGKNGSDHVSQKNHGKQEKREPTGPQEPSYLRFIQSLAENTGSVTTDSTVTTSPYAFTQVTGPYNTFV
UniProt P58462: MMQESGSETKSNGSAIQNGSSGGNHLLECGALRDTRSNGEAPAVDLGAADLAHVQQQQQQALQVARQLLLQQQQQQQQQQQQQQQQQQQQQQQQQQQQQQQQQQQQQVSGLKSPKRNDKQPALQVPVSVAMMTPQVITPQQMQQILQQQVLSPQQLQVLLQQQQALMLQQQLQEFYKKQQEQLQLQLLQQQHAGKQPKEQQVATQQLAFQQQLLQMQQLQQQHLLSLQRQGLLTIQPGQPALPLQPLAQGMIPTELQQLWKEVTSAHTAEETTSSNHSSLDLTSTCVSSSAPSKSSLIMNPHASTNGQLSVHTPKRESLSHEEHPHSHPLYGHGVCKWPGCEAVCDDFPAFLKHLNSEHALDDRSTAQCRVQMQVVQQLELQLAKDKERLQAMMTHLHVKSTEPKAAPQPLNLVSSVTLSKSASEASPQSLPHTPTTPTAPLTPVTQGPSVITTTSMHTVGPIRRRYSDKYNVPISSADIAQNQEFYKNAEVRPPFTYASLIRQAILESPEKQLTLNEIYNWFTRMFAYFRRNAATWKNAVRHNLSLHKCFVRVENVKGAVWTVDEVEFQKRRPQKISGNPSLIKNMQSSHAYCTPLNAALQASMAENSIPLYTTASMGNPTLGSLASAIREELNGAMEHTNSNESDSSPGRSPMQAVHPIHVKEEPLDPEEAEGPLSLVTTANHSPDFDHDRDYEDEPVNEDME

These are yes or no findings as the source states them, for the method shown. In cells and extracts the contact can be indirect. Some entries that bind do so weakly or less than the wild type.

Assay [1] concerns the target TET2 (mouse, endogenous) (mouse (endogenous in mouse mammary epithelial cells)) (UniProt Q4JK59). The experiment in a line: co-IP; reciprocal co-immunoprecipitation of endogenous proteins from WT mouse mammary epithelial cells with anti-TET2 and anti-FOXP1, standard protocol, immunoblot. On the technique in general: A western blot detects proteins with antibodies after separation by electrophoresis.

Assay [2] has as its target TET2 (human, endogenous) (human (endogenous in MCF12A)) (UniProt Q6N021). As to the kind of experiment: co-IP; reciprocal co-immunoprecipitation of endogenous proteins from human mammary epithelial cells MCF12A with anti-TET2 and anti-FOXP1, standard protocol, immunoblot.

In the case of “Forkhead box protein P1 (FOXP1) (mouse, endogenous) (from UniProt P58462 1-705)”, in assay [1], the binding result is on record as “binds”.

B1: Forkhead box protein P1 (FOXP1) (human, endogenous) (protein, UniProt Q9H334 1-677)
chain: MMQESGTETKSNGSAIQNGSGGSNHLLECGGLREGRSNGETPAVDIGAADLAHAQQQQQQALQVARQLLLQQQQQQQVSGLKSPKRNDKQPALQVPVSVAMMTPQVITPQQMQQILQQQVLSPQQLQVLLQQQQALMLQQQQLQEFYKKQQEQLQLQLLQQQHAGKQPKEQQQVATQQLAFQQQLLQMQQLQQQHLLSLQRQGLLTIQPGQPALPLQPLAQGMIPTELQQLWKEVTSAHTAEETTGNNHSSLDLTTTCVSSSAPSKTSLIMNPHASTNGQLSVHTPKRESLSHEEHPHSHPLYGHGVCKWPGCEAVCEDFQSFLKHLNSEHALDDRSTAQCRVQMQVVQQLELQLAKDKERLQAMMTHLHVKSTEPKAAPQPLNLVSSVTLSKSASEASPQSLPHTPTTPTAPLTPVTQGPSVITTTSMHTVGPIRRRYSDKYNVPISSADIAQNQEFYKNAEVRPPFTYASLIRQAILESPEKQLTLNEIYNWFTRMFAYFRRNAATWKNAVRHNLSLHKCFVRVENVKGAVWTVDEVEFQKRRPQKISGNPSLIKNMQSSHAYCTPLNAALQASMAENSIPLYTTASMGNPTLGNLASAIREELNGAMEHTNSNESDSSPGRSPMQAVHPVHVKEEPLDPEEAEGPLSLVTTANHSPDFDHDRDYEDEPVNEDME
As for B1, in assay [2], the binding result is “binds”.
